Consider five molecules from PMC6021170.

Protein sequences, listed by entry. Tags and fused reporters are not part of them. Residues count along the entry.
UniProt P11021, residues 19-654: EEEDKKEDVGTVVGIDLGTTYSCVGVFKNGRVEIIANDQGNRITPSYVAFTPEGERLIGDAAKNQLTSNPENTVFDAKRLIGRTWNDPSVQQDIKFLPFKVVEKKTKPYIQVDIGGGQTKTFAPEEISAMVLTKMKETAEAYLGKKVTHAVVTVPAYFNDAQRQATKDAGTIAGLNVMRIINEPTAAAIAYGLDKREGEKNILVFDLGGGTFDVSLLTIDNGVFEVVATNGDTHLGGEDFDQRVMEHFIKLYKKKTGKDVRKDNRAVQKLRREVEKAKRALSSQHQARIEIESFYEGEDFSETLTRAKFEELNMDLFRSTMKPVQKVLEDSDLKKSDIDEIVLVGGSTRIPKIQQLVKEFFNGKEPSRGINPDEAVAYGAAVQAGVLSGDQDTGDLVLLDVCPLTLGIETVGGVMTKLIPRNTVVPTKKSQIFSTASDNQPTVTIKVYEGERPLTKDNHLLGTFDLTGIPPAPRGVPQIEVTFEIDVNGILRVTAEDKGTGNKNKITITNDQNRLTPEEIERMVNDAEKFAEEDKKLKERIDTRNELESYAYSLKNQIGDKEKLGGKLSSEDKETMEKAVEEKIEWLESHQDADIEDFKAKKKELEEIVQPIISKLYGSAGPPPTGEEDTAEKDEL
UniProt P30101, residues 25-505: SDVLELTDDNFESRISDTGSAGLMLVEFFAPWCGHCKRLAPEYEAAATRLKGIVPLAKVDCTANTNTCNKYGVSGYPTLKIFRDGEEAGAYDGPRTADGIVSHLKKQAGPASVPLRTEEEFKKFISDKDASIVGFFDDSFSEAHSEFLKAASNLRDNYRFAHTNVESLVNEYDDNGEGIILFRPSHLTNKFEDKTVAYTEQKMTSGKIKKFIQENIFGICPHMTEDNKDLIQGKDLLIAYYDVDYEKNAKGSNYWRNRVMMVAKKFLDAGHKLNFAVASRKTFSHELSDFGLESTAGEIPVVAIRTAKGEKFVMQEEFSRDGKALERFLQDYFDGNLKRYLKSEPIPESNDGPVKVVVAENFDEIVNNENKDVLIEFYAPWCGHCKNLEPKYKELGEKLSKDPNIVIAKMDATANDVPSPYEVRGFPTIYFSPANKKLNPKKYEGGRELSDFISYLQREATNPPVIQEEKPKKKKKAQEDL
UniProt P27824, residues 21-592: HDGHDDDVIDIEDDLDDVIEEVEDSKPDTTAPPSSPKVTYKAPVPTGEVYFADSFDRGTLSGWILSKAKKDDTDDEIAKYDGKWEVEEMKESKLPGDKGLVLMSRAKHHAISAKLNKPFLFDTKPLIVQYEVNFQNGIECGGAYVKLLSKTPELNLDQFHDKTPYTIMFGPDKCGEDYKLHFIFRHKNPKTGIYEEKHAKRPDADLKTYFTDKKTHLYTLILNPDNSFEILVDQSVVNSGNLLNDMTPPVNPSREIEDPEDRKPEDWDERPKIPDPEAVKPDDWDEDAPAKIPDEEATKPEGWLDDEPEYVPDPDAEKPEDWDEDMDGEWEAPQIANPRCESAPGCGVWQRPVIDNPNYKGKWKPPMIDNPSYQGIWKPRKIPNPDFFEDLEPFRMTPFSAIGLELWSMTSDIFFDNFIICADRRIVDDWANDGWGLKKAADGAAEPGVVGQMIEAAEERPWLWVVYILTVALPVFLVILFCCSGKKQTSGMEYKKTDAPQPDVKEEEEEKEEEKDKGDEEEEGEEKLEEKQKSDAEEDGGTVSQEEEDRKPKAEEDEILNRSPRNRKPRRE

No constants are given. Whether binding was seen depends on the method and setting. Binding seen in cells or lysates may run through a third protein. Here binding means that the protein was enriched with, or labelled near, the bait; the list need not be complete.

One assay deals with T1, human corin WT (human) (UniProt Q9Y5Q5).
T1 sequence: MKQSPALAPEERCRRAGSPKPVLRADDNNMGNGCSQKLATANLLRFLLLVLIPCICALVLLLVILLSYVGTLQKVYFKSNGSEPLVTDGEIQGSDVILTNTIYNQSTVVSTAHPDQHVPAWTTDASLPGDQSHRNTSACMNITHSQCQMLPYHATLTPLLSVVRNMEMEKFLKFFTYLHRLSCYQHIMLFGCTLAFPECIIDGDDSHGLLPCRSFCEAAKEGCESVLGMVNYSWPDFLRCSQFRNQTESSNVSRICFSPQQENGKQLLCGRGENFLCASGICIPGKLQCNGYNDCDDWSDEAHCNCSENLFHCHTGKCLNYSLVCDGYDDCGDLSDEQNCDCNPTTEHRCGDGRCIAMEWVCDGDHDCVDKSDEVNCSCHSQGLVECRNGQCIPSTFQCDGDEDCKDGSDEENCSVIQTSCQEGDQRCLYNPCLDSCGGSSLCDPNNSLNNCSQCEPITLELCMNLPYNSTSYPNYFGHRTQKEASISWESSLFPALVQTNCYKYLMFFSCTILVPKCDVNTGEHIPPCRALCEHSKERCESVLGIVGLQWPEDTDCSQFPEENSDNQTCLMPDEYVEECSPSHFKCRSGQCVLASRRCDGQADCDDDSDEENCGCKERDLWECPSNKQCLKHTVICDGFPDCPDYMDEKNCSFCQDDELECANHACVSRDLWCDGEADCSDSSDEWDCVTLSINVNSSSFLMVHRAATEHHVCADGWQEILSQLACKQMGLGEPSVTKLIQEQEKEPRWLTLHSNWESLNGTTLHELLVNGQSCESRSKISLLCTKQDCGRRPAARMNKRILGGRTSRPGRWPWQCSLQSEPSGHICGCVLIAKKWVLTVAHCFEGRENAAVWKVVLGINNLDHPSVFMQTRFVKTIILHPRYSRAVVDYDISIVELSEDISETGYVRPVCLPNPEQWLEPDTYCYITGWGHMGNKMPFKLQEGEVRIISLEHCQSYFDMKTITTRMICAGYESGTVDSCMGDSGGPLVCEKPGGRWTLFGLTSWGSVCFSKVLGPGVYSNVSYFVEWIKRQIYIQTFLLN
The experiment in a line: affinity purification with mass spectrometry; HEK293 cells expressing corin treated with the cross-linker DSP (0.8 mg/mL, 4°C, 30 min, stopped with 0.2 M glycine); lysates immunoprecipitated for corin, SDS-PAGE, silver-stained gels analysed by liquid chromatography-mass spectrum.

In assay [1] the target is T2, human corin mutant N1022Q (human) (UniProt Q9Y5Q5).
T2 sequence: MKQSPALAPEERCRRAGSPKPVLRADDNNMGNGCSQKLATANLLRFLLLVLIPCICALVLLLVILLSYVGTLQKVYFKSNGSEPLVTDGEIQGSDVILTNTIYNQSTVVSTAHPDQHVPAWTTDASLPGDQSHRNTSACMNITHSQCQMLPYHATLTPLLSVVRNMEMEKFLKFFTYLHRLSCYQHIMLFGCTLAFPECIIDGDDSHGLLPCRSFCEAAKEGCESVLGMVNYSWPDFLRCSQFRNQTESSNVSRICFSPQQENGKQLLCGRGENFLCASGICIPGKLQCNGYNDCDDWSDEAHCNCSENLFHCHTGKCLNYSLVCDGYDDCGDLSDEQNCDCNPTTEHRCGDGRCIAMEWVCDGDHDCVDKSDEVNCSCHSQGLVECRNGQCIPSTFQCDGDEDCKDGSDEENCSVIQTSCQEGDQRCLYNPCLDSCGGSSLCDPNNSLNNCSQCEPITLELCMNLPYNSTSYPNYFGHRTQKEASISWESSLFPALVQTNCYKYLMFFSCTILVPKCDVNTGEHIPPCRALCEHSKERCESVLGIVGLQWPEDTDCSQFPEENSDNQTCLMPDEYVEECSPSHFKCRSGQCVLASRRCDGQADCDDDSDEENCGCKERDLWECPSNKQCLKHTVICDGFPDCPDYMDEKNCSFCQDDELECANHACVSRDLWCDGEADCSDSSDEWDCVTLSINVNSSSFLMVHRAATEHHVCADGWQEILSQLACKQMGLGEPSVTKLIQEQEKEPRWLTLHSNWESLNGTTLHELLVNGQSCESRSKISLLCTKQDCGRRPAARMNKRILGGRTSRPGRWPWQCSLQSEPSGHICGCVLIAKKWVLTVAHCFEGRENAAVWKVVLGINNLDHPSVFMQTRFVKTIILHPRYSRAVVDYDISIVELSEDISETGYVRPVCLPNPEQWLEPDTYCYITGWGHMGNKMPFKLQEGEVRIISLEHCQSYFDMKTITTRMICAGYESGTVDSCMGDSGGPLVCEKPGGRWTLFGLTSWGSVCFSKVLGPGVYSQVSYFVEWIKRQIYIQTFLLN
Described as above.

With “BiP (binding immunoglobulin protein) (from UniProt P11021 19-654)”, the binding entry (in the assay with human corin WT (human); in assay [1]) was “binds” throughout.

For the molecule “PDI family member A3 (from UniProt P30101 25-505)”, the binding entry (with human corin WT (human); in assay [1]) was “binds” throughout.

For calnexin (from UniProt P27824 21-592), the binding result (in the assay with human corin WT (human); in assay [1]) was “binds” in each case.

Take “calreticulin (from UniProt P27797 18-417)”: the binding result (with human corin WT (human); in assay [1]) was “binds” each time.

B1: PDI family member A4 (protein, UniProt P13667 21-645)
chain: VAGAEGPDEDSSNRENAIEDEEEEEEEDDDEEEDDLEVKEENGVLVLNDANFDNFVADKDTVLLEFYAPWCGHCKQFAPEYEKIANILKDKDPPIPVAKIDATSASVLASRFDVSGYPTIKILKKGQAVDYEGSRTQEEIVAKVREVSQPDWTPPPEVTLVLTKENFDEVVNDADIILVEFYAPWCGHCKKLAPEYEKAAKELSKRSPPIPLAKVDATAETDLAKRFDVSGYPTLKIFRKGRPYDYNGPREKYGIVDYMIEQSGPPSKEILTLKQVQEFLKDGDDVIIIGVFKGESDPAYQQYQDAANNLREDYKFHHTFSTEIAKFLKVSQGQLVVMQPEKFQSKYEPRSHMMDVQGSTQDSAIKDFVLKYALPLVGHRKVSNDAKRYTRRPLVVVYYSVDFSFDYRAATQFWRSKVLEVAKDFPEYTFAIADEEDYAGEVKDLGLSESGEDVNAAILDESGKKFAMEPEEFDSDTLREFVTAFKKGKLKPVIKSQPVPKNNKGPVKVVVGKTFDSIVMDPKKDVLIEFYAPWCGHCKQLEPVYNSLAKKYKGQKGLVIAKMDATANDVPSDRYKVEGFPTIYFAPSGDKKNPVKFEGGDRDLEHLSKFIEEHATKLSRTKEEL
With B1, the binding entry (in the assay with human corin WT (human); in assay [1]) was “binds” each time.
